This passage reports binding results from article PMC7501853.

Chains of the proteins cited; added tags and fusions are not shown. Lines headed by an entry give the natural chain unless they say otherwise; changes in a name come on top.
UniProt Q07812: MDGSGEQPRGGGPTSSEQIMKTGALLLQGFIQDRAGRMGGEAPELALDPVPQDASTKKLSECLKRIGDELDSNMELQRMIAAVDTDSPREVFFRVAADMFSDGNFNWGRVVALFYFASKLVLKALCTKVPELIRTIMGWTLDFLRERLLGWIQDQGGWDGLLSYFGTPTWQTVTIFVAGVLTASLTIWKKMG

No constants are given. Whether binding was seen depends on the method and setting. In cells and extracts the contact can be indirect. Binding calls can cover weak binding; strength is not graded here.

The assay has as its target nesprin-2-Giant (mouse (endogenous in MEFs)) (UniProt Q6ZWQ0). Briefly: proximity ligation; Duolink PLA in fixed Bax/Bak DKO MEFs transiently transfected, with Q-VD-OPH; anti-Bax 6A7 (GFP-Bax, FLAG-Bax) or anti-His (His-Bax) with anti-nesprin-2G or pan anti-nesprin-2 K2 Ab; dots normalised to cell size, relative to control-transfected cells.

For GFP-Bax ∆α2 (from UniProt Q07812), the binding result was “binds”.
